Assay results taken from publication doi:10.1101/2022.05.18.492126.

Molecular target: HscA-GFP fusion protein from the A. fumigatus hscA-gfp strain (Aspergillus fumigatus) (UniProt Q4WCM2)
Assay: co-IP

Substance: human p11 protein (S100A10, light chain of annexin A2) (from UniProt P60903 1-97)
- binding: binds

Results are given in words; binding and its absence hold for the method and conditions named. In cells and extracts the contact can be indirect. A result given as binding can be weak or reduced; the word gives no strength.
